The subject of this data set is erythrocytes. The data set is described as follows: Haemolysis comparison test (extinction of supernatant at 576 nm). It counts as cell-based, human. The note with it: solution without erythrocyte suspension. The method, then:
Of this stock solution, three dilutions were produced in accordance with Table 2 and their haemolytic action also investigated.
Production of the erythrocyte suspension: freshly taken human blood was diluted with approximately 5 times the volume of sterile 0.9% NaCl solution (batch designation: 9055A64 produced by the company Braun Melsungen) and centrifuged for 5 minutes at a relative centrifugal acceleration of 2000. The supernatant solution was then drawn off and the sedimented erythrocytes treated twice more in the same way.
The erythrocytes thus washed were counted in a Neubauer counting chamber and—where necessary—diluted again with sterile 0.9% NaCl solution to a final concentration of approx. 5·10^8 erythrocytes per ml. This suspension is according to DIN standard usable at room temperature for up to 6 hours.
Haemolysis comparison test: 5 ml of the solution to be tested was mixed with 1 ml of the above erythrocyte suspension, transferred to a cleaned centrifuge tube and incubated in a water bath at 37±1° C. for 20 minutes. Centrifuging was then performed for 5 minutes at a relative centrifugal acceleration of 2000.
The extinction of the supernatant liquid was measured. 5 ml of the 0.9% NaCl solution and the 5% glucose solution, which were mixed with 1 ml of the erythrocyte suspension, also incubated at 37±1° C. for 20 minutes and then centrifuged as above, served as negative controls.
For the test for haemolysis, the extinctions of the respective supernatants were measured in a photometer against the negative controls at a wavelength of 576 nm using a cuvette 10 mm in thickness. Owing to the differing stainings of the solutions, the extinction was also measured for the purpose of comparing the solutions without erythrocyte suspension.

Turning to “Amphotericin B-HES Conjugate [Ampho HES]”, the “Extinction 576 nm without erythrocytes” value (amphotericin B 0.12 mg/ml in the solution) is given as 0.033, the “Extinction 576 nm without erythrocytes” value (amphotericin B 0.24 mg/ml in the solution) stood at 0.076, the “Extinction 576 nm without erythrocytes” value (amphotericin B 0.48 mg/ml in the solution) amounted to 0.151 and the “Extinction 576 nm without erythrocytes” value (amphotericin B 1.00 mg/ml in the solution (stock solution)) stood at 0.288.
